# US9863966B2 (priority 2012, dated 2018)
# System: monoclonal antibody from hybridoma cell line NM4.3F5.C10.B7.B2.B2.C4
# Type: binding, sheep
Compound,% Cross Reactivity,IC50 (antibody sensitivity)
CN1CC[C@]23c4c5ccc(O)c4O[C@H]2[C@@H](O)C=C[C@H]3[C@H]1C5.O=S(=O)(O)O [Morphine Sulfate Salt],<1%,
CCOC(=O)C1(c2ccccc2)CCN(C)CC1 [Meperidine],,about 0.5 ng/ml
